According to the supplement of paper PMC12578635:
± gives the standard deviation of the averaged measurements. Some of the results follow. Repeats are few or missing, and single values can be far off.

test system: RAW 264.7 macrophages infected with S. aureus JE2-lux; assay: host macrophage viability (CellTiter-Fluor) relative to DMSO vehicle; higher = more viable host cells; conditions: 10 µM; treatment time 4 h; gentamicin 50 µg/ml

| Compound | host macrophage viability [%] |
| --- | --- |
| COc1cccc(NC(=O)c2oc3ccccc3c2NC(=O)c2cccc([N+](=O)[O-])c2)c1 | 118 ± 7.8 |
| O=C(CSc1nccc(O)n1)Nc1ccc(C(=O)NC2CC2)cc1 | 106 |
| COC(=O)c1c(NC(=O)/C(C#N)=C/c2cccs2)sc(C)c1C | 96.6 |
| C=CCn1c(SCCC(=O)Nc2ccc3c(c2)OCO3)nc2sc3c(c2c1=O)CCCC3 | 115 |
| COc1ccc2nc(N/N=C3/C(=O)N(c4ccccc4)N=C3C)sc2c1 | 99.7 |
| Cc1sc2ncnc(Sc3nnnn3-c3ccccc3)c2c1C | 111.5 ± 0.29 |
| NC(=O)c1ccc(NC(=O)C(=O)N2CCC3(CC2)OCCN3S(=O)(=O)c2cccs2)cc1 | 109 |
| COc1ccc(/N=C/c2c(Nc3ccc(Cl)cc3)nc3c(C)cccn3c2=O)cc1 | 121 |
| Cc1ccc(-c2cc(C(F)(F)F)n3nc(C(=O)NCc4ccco4)nc3n2)cc1 | 111 |
| CCOc1ccc(-c2ccc(OCCNC(=O)c3sc(-c4ccccc4)nc3C)nn2)cc1 | 114 |
| CCOC(=O)c1c(SCC(=O)c2ccc(Cl)cc2)nc(=O)[nH]c1C | 95 |
| COc1ccccc1CNC(=O)c1sc2nc(-c3ccc(F)cc3)cn2c1C | 109 |
| Cc1cc(C)cc(Oc2ncnc3oc(C)c(C)c23)c1 | 129 |
| COc1ccc(CN(Cc2cc3cc(C)ccc3nc2Cl)C(=O)Nc2ccccc2)cc1 | 109 |
| CCOC(=O)C1CCN(c2cc3c(cc2NC(=O)c2cccc(C)c2)n(C)c(=O)n3C)CC1 | 137 |
| Cc1ccccc1N(CC(=O)NCc1ccc(F)cc1)C(=O)c1ccc(N2CCCC2)nc1 | 114 |
| CC(C)Oc1ccc(C(=O)C2=C(O)C(=O)N(Cc3cccnc3)C2c2cccc(O)c2)cc1 (centres undefined) | 121 |
| Cc1ccc(NC(=O)CC2Nc3ccc(C(F)(F)F)cc3NC2=O)c(C)c1 (centres undefined) | 132 |
| Cc1nc2c(ccc3nc(Nc4nc5ccc(F)cc5s4)sc32)s1 | 118 ± 4.7 |
| CCn1cc(C(=O)N2CCCC2c2nc(-c3ccncc3)n[nH]2)c(C)n1 (centres undefined) | 130 |
| COc1ccc(-n2ccnc2SCC(=O)NCc2ccc3c(c2)OCO3)cc1 | 134 |
| COc1cc2nc(NCCCN3CCCC3=O)n3nc(-c4cccnc4)nc3c2cc1OC | 115 |
| CC(C)n1c(SCC(=O)Nc2cccc(F)c2)nc2c(-c3ccccc3)cn(C)c2c1=O | 95.6 |
| COc1ccc(-c2nc3sc(CCNC(=O)C(=O)N4CCN(C(C)=O)CC4)c(C)n3n2)cc1 | 118 |
| CCOc1ccc(NN=C2C(C)=NN=C2C)c([N+](=O)[O-])c1 | 99.3 |
| Cc1cccc(-c2nc3scc(CCNC(=O)C(=O)Nc4cccc([N+](=O)[O-])c4)n3n2)c1 | 102 |

| Compound | host macrophage viability [%] |
| --- | --- |
| CCC1CCCCN1C(=O)CCc1c(C)[nH]c2nc(NCc3ccc(Cl)cc3)nn2c1=O (centres undefined) | 118 |
| Cc1ccc2c(c1)NC(=O)c1cc(NS(=O)(=O)c3ccc4c(c3)OCCO4)ccc1O2 | 121 |
| CCOC(=O)c1cnn(-c2ccc(C(=O)Nc3ccccc3OCC)cn2)c1N | 88.8 |
| CCc1ccc2c(c1)c1nnc(SCc3nnc(-c4ccccc4)o3)nc1n2C | 101 |
| O=c1oc2cc(OCC(O)Cn3ccnc3)ccc2c2c1CCC2 (centres undefined) | 104 |
| O=C(Nc1sc2c(c1C(=O)NCCc1ccccc1)CCC2)c1cc(-c2cccs2)on1 | 141 |
| COC(=O)c1ccccc1NC(=O)CSc1nc2ccccc2s1 | 107 |
| Oc1c2c(nc3nc(Cc4ccc(Cl)cc4)nn13)CCCC2 | 99.8 |
| NC(=O)c1ccc(NC(=O)Cn2cc(S(=O)(=O)Cc3ccccc3)c3ccccc32)cc1 | 119 |
| O=S(=O)(Oc1ccc2oc3ccccc3c2c1)c1cccs1 | 117 |
| Cc1ccccc1/N=c1\scc(-c2cccs2)n1CCO | 104 |
| Nn1c(-c2ccncc2)nn2c(=O)c3ccccc3nc12 | 106 |
| CC(C)c1ccc2nc3sc(C(=O)N4CC(=O)Nc5ccccc54)c(N)c3cc2c1 | 100 |
| Cc1cc(C)cc(NC(=O)NCc2ccnc(N3CCCCC3)c2)c1 | 126 |
| Clc1cccc(/C=N/Nc2ncnc3[nH]cnc23)c1 | 105 |
| CC(=O)/N=c1\sccn1CC(=O)c1ccc([N+](=O)[O-])cc1 | 102 |
| O=C(Nc1cccc(Br)c1)c1cccc2nc3ccccc3nc12 | 115 |
| CCCCCCC1C(C#N)=C(N)OC2=C1C(=O)CC(C)(C)C2 (centres undefined) | 110 |
| O=C(CCc1ccccc1)Nc1nc2c(s1)CSc1ccccc1-2 | 107 |
| O=C(COc1ccc(Cl)cc1Cl)NCC(=O)N/N=C/c1cccs1 | 120 |
| Cc1ccn2cc(CCNS(=O)(=O)c3ccc([N+](=O)[O-])cc3)nc2c1 | 128 |
| COc1ccc(CCNC(=O)CSc2ncnc3[nH]ncc23)cc1OC | 107 |
| CCC(=O)Nc1cccnc1-c1ccc(C(=O)Nc2ccc(OC)cc2OC)cc1 | 105 |
| Cc1oc2ncnc(N3CCC(C(=O)NCCc4ccccc4Cl)CC3)c2c1C | 116 |
| O=C(OC1CCCCC1)c1cc2ccccc2oc1=O | 124 ± 13 |
| Cc1ccc(-c2c(C(F)(F)F)nn3c(NCCN(C)C)cc(C)nc23)cc1 | 106 |

| Compound | host macrophage viability [%] |
| --- | --- |
| Cc1ccc(C(=O)CSc2nnc3[nH]c(=O)c(C)nn23)cc1C | 113 |
| CC(Cn1cnc2ccccc21)C(=O)N/N=C1/C(=O)Nc2ccccc21 (centres undefined) | 113 |
| CC(=O)c1csc(NC(=O)c2cc3ncc(C(C)=O)c(C)n3n2)n1 | 130 |
| CCN(Cc1ccccc1)C(=O)CCN1C(=O)/C(=C\c2ccco2)SC1=S | 128 |
| O=S1(=O)N=C(SCc2cccc(F)c2)Nc2ccc(Cl)cc21 | 120 |
| CC(=O)N1CCc2cc(NC(=O)CSc3nnc4ccccn34)ccc21 | 130 |
| CC(C)c1cc(C(=O)Nc2cccc(-c3nc4ccccc4o3)c2)nn1C1CCS(=O)(=O)C1 (centres undefined) | 134 |
| NC(=O)c1ccsc1NC(=O)c1sc2ccccc2c1Cl | 133 |
| CCOC(=O)Cc1ccc(NC(=O)Nc2ccc(Sc3c(CC)c(C)nc4ncnn34)cc2)cc1 | 102 |
| COc1cc(C(=O)Nc2cccc(C(=O)N3CCCCC3)c2)c2ccccc2n1 | 106 |
| Cn1c(=O)c2c(nc(NCc3cccnc3)n2CC(=O)c2ccccc2)n(C)c1=O | 131 |
| N#Cc1c(NC(=O)c2ccc(-c3nc4ccccc4s3)s2)sc2c1CCC2 | 127 |
| CCOC(=O)c1c(NC(=S)NC(=O)c2ccc(C(=O)OC)cc2)sc(OC(=O)CC)c1C | 113 ± 5.2 |
| COC(=O)c1cc(OC)c(OC)cc1NC(=O)c1cc2ccccc2oc1=O | 95.3 |
| COCCNC(=O)c1c(N)n(/N=C/c2ccncc2)c2nc3ccccc3nc12 | 114 |
| O=C1CC(Nc2ccc(N3CCOCC3)cc2)C(=O)N1 (centres undefined) | 120 |
| O=C(CC1Sc2ccccc2NC1=O)Nc1ccccc1F (centres undefined) | 126 |
| CCOC(=O)c1ccccc1NC(=O)CSc1nnc(C2CCCCC2)n1-n1cccc1 | 112 |
| CC(=O)C1=C(C)Nc2ncnn2C1c1ccc(C(C)C)cc1 (centres undefined) | 113 |
| COc1ccc(Cn2c(C)nc3cc(Cl)c(NC(=O)c4ccncc4)cc3c2=O)cc1 | 100 |
| O=C(Nc1nc2ccc(F)cc2s1)c1ccc2c(c1)CCCC2 | 89.5 |
| CS(=O)(=O)Nc1cccc(C2=NN(C(=O)C3CCCCC3)C(c3cccc(F)c3)C2)c1 (centres undefined) | 93.7 |
| O=C(NNc1nc2c(F)cc(F)cc2s1)c1coc2ccccc2c1=O | 108 ± 3.7 |
| Cc1nc(SCC(=O)Nc2cccc(F)c2)[nH]c(=O)c1C | 114 |
| Cc1sc2nc(SCC(=O)Nc3ccc(S(N)(=O)=O)cc3)[nH]c(=O)c2c1C | 104 |
| CCOc1ccc(-n2c(=O)[nH]c3c(C(N)=O)nc(-c4ccc(C)o4)nc32)cc1 | 116 |

| Compound | host macrophage viability [%] |
| --- | --- |
| COc1ccc(OC)c2sc(NNC(=O)c3c(F)cccc3F)nc12 | 117 ± 8.2 |
| COc1ccc(NC(=O)CC2NC(=O)NC2=O)cc1 (centres undefined) | 113 |
| NS(=O)(=O)c1ccc(NC2=NC(=O)C(CC(=O)O)S2)cc1 (centres undefined) | 117 |
| C#CCOc1cccc(C2CC(=O)Nc3c2cnn3-c2nc3ccccc3s2)c1 (centres undefined) | 118 |
| O=C1C2ON(c3ccc(Cl)cc3)C(c3ccc(F)cc3)C2C(=O)N1c1ccc([N+](=O)[O-])cc1 (centres undefined) | 102 |
| O=C(CSc1ncnc2c1sc1nc3ccccc3cc12)Nc1ccc2c(c1)OCO2 | 124 |
| O=C(C1=C(O)C(=O)N(c2nncs2)C1c1ccc(F)cc1)c1cccs1 (centres undefined) | 122 |
| CCOC(=O)c1c(NC(=O)CSc2ccccc2N)sc(C(C)=O)c1C | 115 |
| C=CCNC(=O)c1ccc(COc2ccccc2Cl)o1 | 128 |
| C=CCn1c(SCC(=O)NCc2cccnc2)nc2sc3c(c2c1=O)CCCC3 | 115 ± 7 |
| CC(=O)NC(=O)c1cc2cc(Cl)ccc2o/c1=N\c1cccc2ccccc12 | 106 ± 3.2 |
| CCS(=O)(=O)c1ccccc1C(=O)Nc1ccc(C)cc1C(=O)c1ccccc1 | 108 |
| Cc1c(-c2ccccc2)n[nH]c1C(=O)Nc1cccc(C(=O)N2CCCCC2)c1 | 115 |
| COc1ccc(/C(C)=N/N2CC(=O)Nc3ccccc32)cc1 | 122 |
| COc1ccccc1CNC(=O)CSc1nnc2c(n1)[nH]c1ccc(F)cc12 | 103 |
| CCOCCCNC(=O)c1ncoc1-c1ccc(F)cc1 | 94.2 |
| O=C(O)CCCNc1ncnc2c1oc1ccccc12 | 121 |
| O=C(CSc1ncc(S(=O)(=O)c2ccc(Cl)cc2)c(=O)[nH]1)Nc1ccc2c(c1)OCCO2 | 118 |
| CCOC(=O)c1ccc(Nc2[nH]c(=O)c3ccccc3c2C(=O)c2ccncc2)cc1 | 101 |
| NC(=O)CSC1=NS(=O)(=O)c2cc(Cl)ccc2N1 | 123 |
| Cc1cc(NC(=O)C2CCN(S(=O)(=O)c3cc(-c4noc(C)n4)sc3C)CC2)c2ccccc2n1 | 112 |
| CCCNC(=O)NCC(c1cccnc1)c1c[nH]c2ccccc12 (centres undefined) | 120 |
| CCNc1nc(Nc2ccc(Cl)cc2)c2cnn(C)c2n1 | 110 |
| CCCCC1CCC(C(=O)Nc2cc(C)nn2-c2ncnc3c2cnn3-c2ccc(Cl)cc2)CC1 (centres undefined) | 116 |
| CC1CCc2c(sc(NC(=O)C(C)Oc3cccc(Br)c3)c2C#N)C1 (centres undefined) | 106 |
| CCCc1cc(C(=O)Nc2ccc3c(c2)CC(C)N3C(C)=O)[nH]n1 (centres undefined) | 114 |

In a second layout: entries from further up.
Compound | host macrophage viability [%]
Cc1nc(SCC(=O)Nc2cccc(F)c2)[nH]c(=O)c1C | 114
Cc1sc2nc(SCC(=O)Nc3ccc(S(N)(=O)=O)cc3)[nH]c(=O)c2c1C | 104
CCOc1ccc(-n2c(=O)[nH]c3c(C(N)=O)nc(-c4ccc(C)o4)nc32)cc1 | 116
COc1ccc(OC)c2sc(NNC(=O)c3c(F)cccc3F)nc12 | 117 ± 8.2
COc1ccc(NC(=O)CC2NC(=O)NC2=O)cc1 (centres undefined) | 113
NS(=O)(=O)c1ccc(NC2=NC(=O)C(CC(=O)O)S2)cc1 (centres undefined) | 117
C#CCOc1cccc(C2CC(=O)Nc3c2cnn3-c2nc3ccccc3s2)c1 (centres undefined) | 118
O=C1C2ON(c3ccc(Cl)cc3)C(c3ccc(F)cc3)C2C(=O)N1c1ccc([N+](=O)[O-])cc1 (centres undefined) | 102
O=C(CSc1ncnc2c1sc1nc3ccccc3cc12)Nc1ccc2c(c1)OCO2 | 124
O=C(C1=C(O)C(=O)N(c2nncs2)C1c1ccc(F)cc1)c1cccs1 (centres undefined) | 122
CCOC(=O)c1c(NC(=O)CSc2ccccc2N)sc(C(C)=O)c1C | 115
C=CCNC(=O)c1ccc(COc2ccccc2Cl)o1 | 128
C=CCn1c(SCC(=O)NCc2cccnc2)nc2sc3c(c2c1=O)CCCC3 | 115 ± 7
CC(=O)NC(=O)c1cc2cc(Cl)ccc2o/c1=N\c1cccc2ccccc12 | 106 ± 3.2
CCS(=O)(=O)c1ccccc1C(=O)Nc1ccc(C)cc1C(=O)c1ccccc1 | 108
Cc1c(-c2ccccc2)n[nH]c1C(=O)Nc1cccc(C(=O)N2CCCCC2)c1 | 115
COc1ccc(/C(C)=N/N2CC(=O)Nc3ccccc32)cc1 | 122
COc1ccccc1CNC(=O)CSc1nnc2c(n1)[nH]c1ccc(F)cc12 | 103
CCOCCCNC(=O)c1ncoc1-c1ccc(F)cc1 | 94.2
O=C(O)CCCNc1ncnc2c1oc1ccccc12 | 121
O=C(CSc1ncc(S(=O)(=O)c2ccc(Cl)cc2)c(=O)[nH]1)Nc1ccc2c(c1)OCCO2 | 118
CCOC(=O)c1ccc(Nc2[nH]c(=O)c3ccccc3c2C(=O)c2ccncc2)cc1 | 101
NC(=O)CSC1=NS(=O)(=O)c2cc(Cl)ccc2N1 | 123
Cc1cc(NC(=O)C2CCN(S(=O)(=O)c3cc(-c4noc(C)n4)sc3C)CC2)c2ccccc2n1 | 112
CCCNC(=O)NCC(c1cccnc1)c1c[nH]c2ccccc12 (centres undefined) | 120
CCNc1nc(Nc2ccc(Cl)cc2)c2cnn(C)c2n1 | 110
CCCCC1CCC(C(=O)Nc2cc(C)nn2-c2ncnc3c2cnn3-c2ccc(Cl)cc2)CC1 (centres undefined) | 116
CC1CCc2c(sc(NC(=O)C(C)Oc3cccc(Br)c3)c2C#N)C1 (centres undefined) | 106
CCCc1cc(C(=O)Nc2ccc3c(c2)CC(C)N3C(C)=O)[nH]n1 (centres undefined) | 114
